Some results were stated once for a whole list of compounds, not compound by compound. For at least one compound, name, drawing or mass did not settle the structure.
Key:
[1] = test system: Trichostrongylus colubriformis; test: Method D: screening of activity against Trichostrongylus colubriformis L1 larvae in microtitre plate; conditions: 4 days assessment
[2] = test system: microfilaria of Dirofilaria immitis; test: Method F: activity against microfilaria of Dirofilaria immitis in microtitre plate; conditions: test concentration 50 ppm; assessment at 24 hours
Haemonchus contortus [3] = test: Method A: screening of activity against Haemonchus contortus L1 larvae in microtitre plate (development to L3 / motility); conditions: 4 days assessment
Haemonchus contortus [4] = test: Method B: activity against Haemonchus contortus in vivo in Mongolian gerbil; set-up: species or system Mongolian gerbil (Meriones unguiculatus); conditions: oral gavage, dose 0.5 mg/kg
Procedure: Method B: Screening Method to Test Activity of Compounds Against Haemonchus contortus In Vivo in Mongolian Gerbil (Meriones unguiculatus).
Mongolian gerbils, at least five weeks old, were immunosuppressed and artificially infected with ca. 1000 ensheathed Haemonchus contortus third instar larvae. Six days after infection, the Mongolian gerbils were treated by oral gavage with the test compounds, dissolved in a mixture of 2 parts DMSO and 1 part polyethylene glycol (PEG400), at doses of 100 mg/kg and dissolved in pure polyethylene glycol (PEG400) at doses of 10 and 1 mg/kg. Mongolian gerbils treated only with the placebo (2 parts DMSO and 1 part PEG400 or pure PEG400) served as controls. On day 9 (3 days after treatment) the jirds were euthanized and necropsied for recovery of parasites from the stomach. Efficacy was calculated as the average % reduction in the number of worms in each test group compared with the average number of worms from the control group. […] Compound numbers 1.001, 1.008, 1.012, 1.013 and 1.014 provided at least 95% reduction in nematode in Mongolian gerbils treated by oral gavage with test article at a dose of 100 mg/kg. Compound numbers 1.012, 1.033, 1.064, 2.008, 2.037, 2.038, 2.040, 2.041, 3.001 provided at least 95% reduction in nematode infection at a dose of 10 mg/kg. […]

Ostertagia = test: Method E: sheep in vivo, Ostertagia; conditions: oral, dose 3 mg/kg
Trichostrongylus = test: Method E: sheep in vivo, Trichostrongylus; conditions: oral, dose 3 mg/kg
[5] = test system: Haemonchus contortus, Ostertagia circumcincta, Trichostrongylus axei, Trichostrongylus colubriformis, Cooperia curticei and Nematodirus battus; test: Method E: activity against induced mixed nematode infection in vivo in sheep (all species); conditions: oral, doses as low as 1 or 3 mg/kg
Haemonchus = test: Method E: sheep in vivo, Haemonchus; conditions: oral, dose 3 mg/kg

Row | SMILES | motility inhibition ([1]; test concentration 0.04 ppm) | motility inhibition [2] | motility inhibition (Haemonchus contortus [3]; test concentration 0.04 ppm) | motility inhibition ([1]; test concentration 0.0025 ppm) | reduction in nematode infection (Haemonchus contortus [4]) | efficacy against Ostertagia (Ostertagia) | motility inhibition (Haemonchus contortus [3]; test concentration 0.0025 ppm) | efficacy against Trichostrongylus (Trichostrongylus) | efficacy against one or more species of the nematodes tested [5] | efficacy against Haemonchus (Haemonchus)
1 | CC(C#N)(Cn1nc2ccc(Cl)cc2n1)NC(=O)c1ccc(SC(F)(F)F)cc1 (stereo not shown) [Compound 1.003, N-[2-(5-Chloro-2H-benzotriazol-2-yl)-1-cyano-1-methylethyl]-4-trifluoromethylthiobenzamide] | at least 90% | at least 90% | at least 90% | – | – | – | – | – | – | –
2 | CC(C#N)(Cn1cc2ncc(Cl)cc2n1)NC(=O)c1ccc(SC(F)(F)F)cc1 (stereo not shown) [Compound 3.006, N-[2-(6-Chloro-2H-pyrazolo[4,3-b]pyridin-2-yl)-1-cyano-1-methylethyl]-4-trifluoromethylthiobenzamide] | – | at least 90% | – | at least 90% | at least 95% | > 95% | at least 90% | > 95% | > 90% | > 95%
3 | CC(C#N)(Cn1nc2c(Cl)cc(Cl)c(Br)c2n1)NC(=O)c1ccc(SC(F)(F)F)cc1 (stereo not shown) [Compound 1.087, N-[2-(4-Bromo-5,7-dichloro-2H-benzotriazol-2-yl)-1-cyano-1-methylethyl]-4-trifluoromethylthiobenzamide] | – | at least 90% | – | – | – | – | at least 90% | – | – | –

Reference: patent US8461176B2, “Enantiomerically enriched aryloazol-2-yl cyanoethylamino compounds, method of making and method of using thereof” (Merial Limited, priority 2008, dated 2013)
